Measured values: the supplement of paper PMC10849652
The list shows a part of the results.

Amino acid sequences for entries named in this document (tags omitted). A change or cut given only in a name is not applied to a line headed by its entry.
UniProt Q13615: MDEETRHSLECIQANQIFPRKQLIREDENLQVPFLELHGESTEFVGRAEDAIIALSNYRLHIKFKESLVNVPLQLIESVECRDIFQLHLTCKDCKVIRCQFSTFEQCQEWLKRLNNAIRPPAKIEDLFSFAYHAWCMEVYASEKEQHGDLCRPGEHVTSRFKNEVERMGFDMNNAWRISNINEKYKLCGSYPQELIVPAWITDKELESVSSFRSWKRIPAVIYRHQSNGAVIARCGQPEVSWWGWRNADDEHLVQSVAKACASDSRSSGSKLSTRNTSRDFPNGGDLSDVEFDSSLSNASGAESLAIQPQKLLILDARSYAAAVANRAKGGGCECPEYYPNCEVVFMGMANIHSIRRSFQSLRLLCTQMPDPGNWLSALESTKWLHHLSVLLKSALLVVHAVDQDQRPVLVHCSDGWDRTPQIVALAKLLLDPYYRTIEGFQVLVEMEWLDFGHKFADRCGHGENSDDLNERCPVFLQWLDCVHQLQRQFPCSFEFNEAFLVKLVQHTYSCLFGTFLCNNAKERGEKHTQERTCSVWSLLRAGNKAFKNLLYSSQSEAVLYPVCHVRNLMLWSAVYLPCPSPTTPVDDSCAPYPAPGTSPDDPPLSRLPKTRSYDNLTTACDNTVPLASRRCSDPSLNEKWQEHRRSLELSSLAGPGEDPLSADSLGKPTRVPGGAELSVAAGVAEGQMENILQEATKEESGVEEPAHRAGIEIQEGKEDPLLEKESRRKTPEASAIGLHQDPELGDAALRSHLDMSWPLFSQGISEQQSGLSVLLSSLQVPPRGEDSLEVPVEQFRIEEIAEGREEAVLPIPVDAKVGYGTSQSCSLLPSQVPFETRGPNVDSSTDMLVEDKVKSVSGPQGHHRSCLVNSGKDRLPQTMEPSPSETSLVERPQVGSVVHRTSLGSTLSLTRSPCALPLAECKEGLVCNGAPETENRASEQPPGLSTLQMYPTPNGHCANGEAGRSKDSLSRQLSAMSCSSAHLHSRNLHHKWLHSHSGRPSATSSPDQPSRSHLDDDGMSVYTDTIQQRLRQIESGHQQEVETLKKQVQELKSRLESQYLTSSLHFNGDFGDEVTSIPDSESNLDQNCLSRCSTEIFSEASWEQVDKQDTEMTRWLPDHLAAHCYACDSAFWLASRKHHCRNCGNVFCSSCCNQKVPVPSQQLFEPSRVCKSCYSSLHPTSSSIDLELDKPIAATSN
UniProt Q96S97: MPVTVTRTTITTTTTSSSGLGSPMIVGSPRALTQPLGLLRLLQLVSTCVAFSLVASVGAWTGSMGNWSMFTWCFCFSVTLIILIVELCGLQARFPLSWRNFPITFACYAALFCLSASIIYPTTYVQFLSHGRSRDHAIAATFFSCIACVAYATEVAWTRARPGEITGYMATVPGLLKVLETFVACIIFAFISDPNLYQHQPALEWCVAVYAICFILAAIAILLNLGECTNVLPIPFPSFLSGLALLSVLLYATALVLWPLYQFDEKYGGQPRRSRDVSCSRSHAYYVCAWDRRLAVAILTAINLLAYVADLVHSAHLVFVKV
UniProt Q9Y3D2: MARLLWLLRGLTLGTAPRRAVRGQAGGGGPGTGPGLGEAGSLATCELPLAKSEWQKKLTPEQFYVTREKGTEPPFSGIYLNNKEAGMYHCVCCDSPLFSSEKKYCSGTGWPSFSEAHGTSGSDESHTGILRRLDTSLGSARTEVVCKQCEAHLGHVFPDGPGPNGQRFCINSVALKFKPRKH
UniProt O94776: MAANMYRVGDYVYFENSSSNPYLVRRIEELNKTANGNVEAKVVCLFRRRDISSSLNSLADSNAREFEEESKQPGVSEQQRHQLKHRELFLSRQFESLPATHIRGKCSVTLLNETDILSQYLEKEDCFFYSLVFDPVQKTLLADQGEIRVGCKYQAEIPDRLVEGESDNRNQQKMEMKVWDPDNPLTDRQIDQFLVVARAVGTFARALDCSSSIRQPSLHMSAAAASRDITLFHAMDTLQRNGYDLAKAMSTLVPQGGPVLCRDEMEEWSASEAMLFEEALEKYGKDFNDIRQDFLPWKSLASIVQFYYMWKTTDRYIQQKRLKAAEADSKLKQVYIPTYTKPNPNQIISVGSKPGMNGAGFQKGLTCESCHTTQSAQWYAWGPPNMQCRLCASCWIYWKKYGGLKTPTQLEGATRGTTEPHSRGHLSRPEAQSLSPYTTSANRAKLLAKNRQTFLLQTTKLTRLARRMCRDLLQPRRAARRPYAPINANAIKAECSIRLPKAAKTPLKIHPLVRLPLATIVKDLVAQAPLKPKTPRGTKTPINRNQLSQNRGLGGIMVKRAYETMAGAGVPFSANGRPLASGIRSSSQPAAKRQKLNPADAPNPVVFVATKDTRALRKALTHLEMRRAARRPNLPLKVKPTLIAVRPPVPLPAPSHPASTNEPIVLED
UniProt Q9UM54, whole entry, looked up: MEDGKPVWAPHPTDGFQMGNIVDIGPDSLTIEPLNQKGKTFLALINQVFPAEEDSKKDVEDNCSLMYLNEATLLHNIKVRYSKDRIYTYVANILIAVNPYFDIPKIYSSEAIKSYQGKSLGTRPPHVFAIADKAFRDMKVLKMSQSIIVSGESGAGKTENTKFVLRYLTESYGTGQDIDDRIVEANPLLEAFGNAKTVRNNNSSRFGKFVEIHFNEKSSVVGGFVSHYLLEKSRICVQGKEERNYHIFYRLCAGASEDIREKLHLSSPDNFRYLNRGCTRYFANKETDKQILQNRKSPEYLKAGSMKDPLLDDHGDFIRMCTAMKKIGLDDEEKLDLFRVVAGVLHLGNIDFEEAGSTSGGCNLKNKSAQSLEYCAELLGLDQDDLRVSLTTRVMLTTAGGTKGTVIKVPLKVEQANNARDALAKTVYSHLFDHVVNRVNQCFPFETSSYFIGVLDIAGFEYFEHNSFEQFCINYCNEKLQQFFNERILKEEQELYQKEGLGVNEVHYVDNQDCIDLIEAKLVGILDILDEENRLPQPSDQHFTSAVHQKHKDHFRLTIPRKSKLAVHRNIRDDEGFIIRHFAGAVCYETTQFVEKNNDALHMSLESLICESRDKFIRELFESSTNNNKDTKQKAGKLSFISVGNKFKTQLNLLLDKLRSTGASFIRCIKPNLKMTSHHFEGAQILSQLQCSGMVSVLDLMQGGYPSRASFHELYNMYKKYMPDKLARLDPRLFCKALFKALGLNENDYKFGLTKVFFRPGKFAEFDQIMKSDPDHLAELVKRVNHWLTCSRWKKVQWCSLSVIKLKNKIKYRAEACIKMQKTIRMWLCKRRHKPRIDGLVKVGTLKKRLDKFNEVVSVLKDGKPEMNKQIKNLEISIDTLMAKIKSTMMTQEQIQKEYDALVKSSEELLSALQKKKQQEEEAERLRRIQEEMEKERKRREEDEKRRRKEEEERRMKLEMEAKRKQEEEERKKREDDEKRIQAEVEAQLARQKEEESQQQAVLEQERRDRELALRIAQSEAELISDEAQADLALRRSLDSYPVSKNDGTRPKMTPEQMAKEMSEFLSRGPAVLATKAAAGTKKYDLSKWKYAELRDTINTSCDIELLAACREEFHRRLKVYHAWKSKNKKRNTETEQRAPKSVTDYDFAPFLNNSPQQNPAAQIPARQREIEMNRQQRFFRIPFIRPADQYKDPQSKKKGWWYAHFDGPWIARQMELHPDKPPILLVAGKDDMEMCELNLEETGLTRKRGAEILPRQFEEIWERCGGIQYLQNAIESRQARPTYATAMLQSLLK
UniProt P12829: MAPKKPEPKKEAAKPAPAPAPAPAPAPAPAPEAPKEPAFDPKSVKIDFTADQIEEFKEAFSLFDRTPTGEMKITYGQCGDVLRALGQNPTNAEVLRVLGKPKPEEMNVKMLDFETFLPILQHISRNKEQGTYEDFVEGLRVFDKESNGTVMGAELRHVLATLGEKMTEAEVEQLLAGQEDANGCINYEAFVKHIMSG
UniProt P42898: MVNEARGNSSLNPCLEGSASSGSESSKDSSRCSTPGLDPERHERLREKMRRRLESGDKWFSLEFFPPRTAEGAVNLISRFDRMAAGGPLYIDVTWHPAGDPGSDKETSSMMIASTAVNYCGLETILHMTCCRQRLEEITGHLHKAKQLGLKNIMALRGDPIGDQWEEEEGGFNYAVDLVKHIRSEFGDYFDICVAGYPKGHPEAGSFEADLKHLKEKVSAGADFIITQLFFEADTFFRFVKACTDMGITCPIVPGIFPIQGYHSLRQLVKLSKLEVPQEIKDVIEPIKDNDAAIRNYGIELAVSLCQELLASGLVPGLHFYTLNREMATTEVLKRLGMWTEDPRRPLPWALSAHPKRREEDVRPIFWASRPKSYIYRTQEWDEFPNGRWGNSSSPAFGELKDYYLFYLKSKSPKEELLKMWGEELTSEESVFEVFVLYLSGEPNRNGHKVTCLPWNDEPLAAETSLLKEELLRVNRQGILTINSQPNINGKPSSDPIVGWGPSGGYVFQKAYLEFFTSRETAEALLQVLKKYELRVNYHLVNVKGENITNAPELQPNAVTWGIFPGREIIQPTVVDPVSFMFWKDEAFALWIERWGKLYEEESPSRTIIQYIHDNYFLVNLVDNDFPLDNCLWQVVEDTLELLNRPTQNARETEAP
UniProt Q9UDX5: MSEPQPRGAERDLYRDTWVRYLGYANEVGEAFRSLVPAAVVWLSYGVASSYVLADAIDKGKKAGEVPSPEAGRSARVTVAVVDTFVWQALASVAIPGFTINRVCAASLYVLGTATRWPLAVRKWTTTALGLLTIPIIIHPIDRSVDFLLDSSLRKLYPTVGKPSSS
UniProt Q9BQG0: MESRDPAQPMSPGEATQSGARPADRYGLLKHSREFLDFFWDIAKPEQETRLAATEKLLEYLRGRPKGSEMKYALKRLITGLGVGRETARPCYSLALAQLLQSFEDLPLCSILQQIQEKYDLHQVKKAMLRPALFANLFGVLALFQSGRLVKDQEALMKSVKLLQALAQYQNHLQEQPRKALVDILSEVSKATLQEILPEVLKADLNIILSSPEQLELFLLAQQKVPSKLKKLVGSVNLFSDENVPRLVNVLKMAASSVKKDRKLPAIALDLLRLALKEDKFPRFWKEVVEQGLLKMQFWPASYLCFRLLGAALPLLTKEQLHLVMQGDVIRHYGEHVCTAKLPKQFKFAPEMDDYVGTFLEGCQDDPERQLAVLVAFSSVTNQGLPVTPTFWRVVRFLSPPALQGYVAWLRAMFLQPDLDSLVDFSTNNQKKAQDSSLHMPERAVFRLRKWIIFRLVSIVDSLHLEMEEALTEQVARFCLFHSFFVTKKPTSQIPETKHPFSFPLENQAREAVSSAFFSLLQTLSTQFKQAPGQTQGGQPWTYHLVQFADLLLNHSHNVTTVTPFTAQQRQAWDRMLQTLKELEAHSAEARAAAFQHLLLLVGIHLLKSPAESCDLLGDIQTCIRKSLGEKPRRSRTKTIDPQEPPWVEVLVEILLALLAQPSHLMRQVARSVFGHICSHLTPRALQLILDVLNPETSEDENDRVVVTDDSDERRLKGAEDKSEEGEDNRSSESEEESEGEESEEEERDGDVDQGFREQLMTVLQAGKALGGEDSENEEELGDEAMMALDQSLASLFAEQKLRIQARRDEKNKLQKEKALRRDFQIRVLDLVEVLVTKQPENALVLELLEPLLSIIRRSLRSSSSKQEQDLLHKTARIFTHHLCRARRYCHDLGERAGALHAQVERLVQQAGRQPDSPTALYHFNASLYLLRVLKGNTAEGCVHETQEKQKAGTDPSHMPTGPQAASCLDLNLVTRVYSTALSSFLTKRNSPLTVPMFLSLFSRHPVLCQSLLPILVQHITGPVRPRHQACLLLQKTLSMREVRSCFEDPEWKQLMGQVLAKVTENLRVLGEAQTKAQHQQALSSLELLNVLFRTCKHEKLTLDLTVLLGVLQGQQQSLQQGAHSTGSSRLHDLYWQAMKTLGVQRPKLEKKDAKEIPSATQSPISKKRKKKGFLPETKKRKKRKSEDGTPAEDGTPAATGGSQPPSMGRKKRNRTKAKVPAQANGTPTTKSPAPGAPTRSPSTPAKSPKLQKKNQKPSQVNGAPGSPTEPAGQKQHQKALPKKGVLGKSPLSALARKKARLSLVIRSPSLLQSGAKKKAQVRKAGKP
UniProt Q86UE4: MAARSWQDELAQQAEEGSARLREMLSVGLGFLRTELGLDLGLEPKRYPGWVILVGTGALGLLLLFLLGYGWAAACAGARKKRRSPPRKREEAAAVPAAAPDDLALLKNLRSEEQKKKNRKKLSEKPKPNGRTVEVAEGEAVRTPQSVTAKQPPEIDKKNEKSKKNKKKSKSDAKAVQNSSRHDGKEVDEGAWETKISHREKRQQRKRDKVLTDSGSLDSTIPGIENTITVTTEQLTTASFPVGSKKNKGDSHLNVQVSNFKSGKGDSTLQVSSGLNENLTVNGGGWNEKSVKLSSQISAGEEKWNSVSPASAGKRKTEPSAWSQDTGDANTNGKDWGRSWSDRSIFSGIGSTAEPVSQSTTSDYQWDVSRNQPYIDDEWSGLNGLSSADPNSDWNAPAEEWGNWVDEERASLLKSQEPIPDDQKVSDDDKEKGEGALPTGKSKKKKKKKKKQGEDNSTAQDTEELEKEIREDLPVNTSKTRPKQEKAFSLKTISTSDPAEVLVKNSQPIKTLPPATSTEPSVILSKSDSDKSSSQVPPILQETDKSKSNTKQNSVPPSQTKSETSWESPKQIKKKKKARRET

Each target was assayed with c1cn2cc(-c3ccc4cn[nH]c4c3)nc(Nc3ccc(N4CCOCC4)cc3)c2n1 [entospletinib] (assay: log2 fold change, soluble protein after heating vs DMSO (PISA); higher = thermal stabilisation; K562 cells, 10 uM, 30 min; active = over 0.2 and 3.5 SD of the protein, either way, in both replicates (recomputed)).
Method in brief: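 Aliquots of K562 cells (2×10^6 cells/mL) treated with 10 μM compound for 30 min were heated for 3 min over 48°C-58°C. After pooling and extraction in PBS with 0.5% NP-40 at 4°C, soluble protein from a 21,000xg, 90 min spin was quantified by TMTpro 16plex LC-MS/MS with channel sums equalised. Thermal stability is expressed against control samples, from duplicates, as a log2 fold change.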

log2 fold change, inactive:
MRPS23 (UniProt Q9Y3D9) 0.091, MYDGF (UniProt Q969H8) 0.016, MT-ATP8 (UniProt P03928) 0.164, MTMR3 (UniProt Q13615) 0.004, MTHFD2 (UniProt P13995) -0.002, MYADM (UniProt Q96S97) -0.194, MTMR9 (UniProt Q96QG7) 0.056, MSRB2 (UniProt Q9Y3D2) -0.022, MYH4 (UniProt Q9Y623) 0.895, MVP (UniProt Q14764) 0.913, MT1L (UniProt Q93083) 0.074, MRPS11 (UniProt P82912) 0.02, MTREX (UniProt P42285) -0.031, MTCH1 (UniProt Q9NZJ7) -0.008, MTA2 (UniProt O94776) 0.039, MYO6 isoform 6 (UniProt Q9UM54) -0.016, MYL6B (UniProt P14649) -0.004, MTHFD1L (UniProt Q6UB35) 0.007, MTPAP (UniProt Q9NVV4) 0.046, MSI1 (UniProt O43347) 0.208, MYL4 (UniProt P12829) -0.033, MTHFR isoform 2 (UniProt P42898) 0, MTFP1 (UniProt Q9UDX5) 0.007, MYBBP1A isoform 2 (UniProt Q9BQG0) -0.056, MRPS14 (UniProt O60783) 0.176, MSI2 (UniProt Q96DH6) 0.002, MYO18B isoform 3 (UniProt Q8IUG5) 0.3, MVB12A (UniProt Q96EY5) 0, MTHFD1L (UniProt B7ZM99) 0.009, MTDH (UniProt Q86UE4) 0.12
